# According to the supplement of paper PMC12595434, “Development of retinoid nuclear receptor pathway antagonists through targeting aldehyde dehydrogenase 1A3” (iScience, 2025):
# Chains of the proteins cited; added tags and fusions are not shown. Lines headed by an entry give the natural chain unless they say otherwise; changes in a name come on top.
# UniProt Q8NFG4: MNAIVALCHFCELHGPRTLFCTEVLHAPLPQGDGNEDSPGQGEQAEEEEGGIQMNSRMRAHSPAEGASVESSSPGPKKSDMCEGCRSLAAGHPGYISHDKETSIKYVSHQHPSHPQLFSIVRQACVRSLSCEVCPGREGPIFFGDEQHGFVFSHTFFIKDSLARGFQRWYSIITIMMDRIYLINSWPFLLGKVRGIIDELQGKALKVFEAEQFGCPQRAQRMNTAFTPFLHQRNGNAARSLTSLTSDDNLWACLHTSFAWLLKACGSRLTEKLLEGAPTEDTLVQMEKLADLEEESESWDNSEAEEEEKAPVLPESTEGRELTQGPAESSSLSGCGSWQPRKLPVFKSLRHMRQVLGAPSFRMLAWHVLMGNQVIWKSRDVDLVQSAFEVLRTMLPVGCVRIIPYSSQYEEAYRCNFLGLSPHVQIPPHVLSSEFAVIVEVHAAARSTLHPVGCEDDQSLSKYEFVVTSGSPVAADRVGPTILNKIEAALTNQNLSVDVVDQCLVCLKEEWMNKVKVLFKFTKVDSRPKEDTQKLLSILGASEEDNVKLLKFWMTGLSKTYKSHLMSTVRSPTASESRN
# UniProt Q8WTS6: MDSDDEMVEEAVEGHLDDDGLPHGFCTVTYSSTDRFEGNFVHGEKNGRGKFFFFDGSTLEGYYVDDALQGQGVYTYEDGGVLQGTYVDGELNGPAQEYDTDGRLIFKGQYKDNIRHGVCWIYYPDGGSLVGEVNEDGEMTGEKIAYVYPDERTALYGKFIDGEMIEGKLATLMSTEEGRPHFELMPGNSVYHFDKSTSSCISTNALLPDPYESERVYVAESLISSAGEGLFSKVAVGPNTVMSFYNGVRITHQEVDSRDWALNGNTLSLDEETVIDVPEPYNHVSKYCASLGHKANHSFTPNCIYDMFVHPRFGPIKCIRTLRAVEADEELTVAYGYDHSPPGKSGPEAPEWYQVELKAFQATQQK
# UniProt Q8TBE9: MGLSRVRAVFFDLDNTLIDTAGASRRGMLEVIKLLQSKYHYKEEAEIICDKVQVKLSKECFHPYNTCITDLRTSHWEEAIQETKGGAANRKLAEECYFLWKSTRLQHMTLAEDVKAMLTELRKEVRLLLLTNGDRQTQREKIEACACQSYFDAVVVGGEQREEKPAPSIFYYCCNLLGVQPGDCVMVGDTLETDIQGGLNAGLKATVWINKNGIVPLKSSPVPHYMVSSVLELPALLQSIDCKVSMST
# UniProt Q8TED1: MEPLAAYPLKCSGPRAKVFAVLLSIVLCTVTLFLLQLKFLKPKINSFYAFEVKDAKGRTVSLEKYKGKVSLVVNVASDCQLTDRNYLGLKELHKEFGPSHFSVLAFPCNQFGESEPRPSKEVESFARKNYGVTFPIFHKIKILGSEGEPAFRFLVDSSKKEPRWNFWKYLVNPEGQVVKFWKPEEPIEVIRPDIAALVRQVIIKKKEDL
# UniProt Q8NC96: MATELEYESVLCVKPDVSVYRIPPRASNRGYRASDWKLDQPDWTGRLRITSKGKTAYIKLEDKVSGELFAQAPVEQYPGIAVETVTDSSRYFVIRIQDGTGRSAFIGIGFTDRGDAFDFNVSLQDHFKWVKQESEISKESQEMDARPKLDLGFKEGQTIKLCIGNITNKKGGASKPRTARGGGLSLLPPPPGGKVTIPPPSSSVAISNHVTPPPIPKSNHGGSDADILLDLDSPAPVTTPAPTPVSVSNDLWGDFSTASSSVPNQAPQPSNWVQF
# UniProt Q8TEB9: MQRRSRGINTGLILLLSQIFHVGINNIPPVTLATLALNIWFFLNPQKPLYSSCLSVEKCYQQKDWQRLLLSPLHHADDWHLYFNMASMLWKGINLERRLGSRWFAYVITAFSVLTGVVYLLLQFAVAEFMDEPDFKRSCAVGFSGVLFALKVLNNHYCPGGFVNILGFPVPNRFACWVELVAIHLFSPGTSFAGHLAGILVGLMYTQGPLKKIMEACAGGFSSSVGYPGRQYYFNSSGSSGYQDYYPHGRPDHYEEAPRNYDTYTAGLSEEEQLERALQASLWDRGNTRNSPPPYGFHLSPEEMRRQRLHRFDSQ
# UniProt Q8NFP9, whole entry: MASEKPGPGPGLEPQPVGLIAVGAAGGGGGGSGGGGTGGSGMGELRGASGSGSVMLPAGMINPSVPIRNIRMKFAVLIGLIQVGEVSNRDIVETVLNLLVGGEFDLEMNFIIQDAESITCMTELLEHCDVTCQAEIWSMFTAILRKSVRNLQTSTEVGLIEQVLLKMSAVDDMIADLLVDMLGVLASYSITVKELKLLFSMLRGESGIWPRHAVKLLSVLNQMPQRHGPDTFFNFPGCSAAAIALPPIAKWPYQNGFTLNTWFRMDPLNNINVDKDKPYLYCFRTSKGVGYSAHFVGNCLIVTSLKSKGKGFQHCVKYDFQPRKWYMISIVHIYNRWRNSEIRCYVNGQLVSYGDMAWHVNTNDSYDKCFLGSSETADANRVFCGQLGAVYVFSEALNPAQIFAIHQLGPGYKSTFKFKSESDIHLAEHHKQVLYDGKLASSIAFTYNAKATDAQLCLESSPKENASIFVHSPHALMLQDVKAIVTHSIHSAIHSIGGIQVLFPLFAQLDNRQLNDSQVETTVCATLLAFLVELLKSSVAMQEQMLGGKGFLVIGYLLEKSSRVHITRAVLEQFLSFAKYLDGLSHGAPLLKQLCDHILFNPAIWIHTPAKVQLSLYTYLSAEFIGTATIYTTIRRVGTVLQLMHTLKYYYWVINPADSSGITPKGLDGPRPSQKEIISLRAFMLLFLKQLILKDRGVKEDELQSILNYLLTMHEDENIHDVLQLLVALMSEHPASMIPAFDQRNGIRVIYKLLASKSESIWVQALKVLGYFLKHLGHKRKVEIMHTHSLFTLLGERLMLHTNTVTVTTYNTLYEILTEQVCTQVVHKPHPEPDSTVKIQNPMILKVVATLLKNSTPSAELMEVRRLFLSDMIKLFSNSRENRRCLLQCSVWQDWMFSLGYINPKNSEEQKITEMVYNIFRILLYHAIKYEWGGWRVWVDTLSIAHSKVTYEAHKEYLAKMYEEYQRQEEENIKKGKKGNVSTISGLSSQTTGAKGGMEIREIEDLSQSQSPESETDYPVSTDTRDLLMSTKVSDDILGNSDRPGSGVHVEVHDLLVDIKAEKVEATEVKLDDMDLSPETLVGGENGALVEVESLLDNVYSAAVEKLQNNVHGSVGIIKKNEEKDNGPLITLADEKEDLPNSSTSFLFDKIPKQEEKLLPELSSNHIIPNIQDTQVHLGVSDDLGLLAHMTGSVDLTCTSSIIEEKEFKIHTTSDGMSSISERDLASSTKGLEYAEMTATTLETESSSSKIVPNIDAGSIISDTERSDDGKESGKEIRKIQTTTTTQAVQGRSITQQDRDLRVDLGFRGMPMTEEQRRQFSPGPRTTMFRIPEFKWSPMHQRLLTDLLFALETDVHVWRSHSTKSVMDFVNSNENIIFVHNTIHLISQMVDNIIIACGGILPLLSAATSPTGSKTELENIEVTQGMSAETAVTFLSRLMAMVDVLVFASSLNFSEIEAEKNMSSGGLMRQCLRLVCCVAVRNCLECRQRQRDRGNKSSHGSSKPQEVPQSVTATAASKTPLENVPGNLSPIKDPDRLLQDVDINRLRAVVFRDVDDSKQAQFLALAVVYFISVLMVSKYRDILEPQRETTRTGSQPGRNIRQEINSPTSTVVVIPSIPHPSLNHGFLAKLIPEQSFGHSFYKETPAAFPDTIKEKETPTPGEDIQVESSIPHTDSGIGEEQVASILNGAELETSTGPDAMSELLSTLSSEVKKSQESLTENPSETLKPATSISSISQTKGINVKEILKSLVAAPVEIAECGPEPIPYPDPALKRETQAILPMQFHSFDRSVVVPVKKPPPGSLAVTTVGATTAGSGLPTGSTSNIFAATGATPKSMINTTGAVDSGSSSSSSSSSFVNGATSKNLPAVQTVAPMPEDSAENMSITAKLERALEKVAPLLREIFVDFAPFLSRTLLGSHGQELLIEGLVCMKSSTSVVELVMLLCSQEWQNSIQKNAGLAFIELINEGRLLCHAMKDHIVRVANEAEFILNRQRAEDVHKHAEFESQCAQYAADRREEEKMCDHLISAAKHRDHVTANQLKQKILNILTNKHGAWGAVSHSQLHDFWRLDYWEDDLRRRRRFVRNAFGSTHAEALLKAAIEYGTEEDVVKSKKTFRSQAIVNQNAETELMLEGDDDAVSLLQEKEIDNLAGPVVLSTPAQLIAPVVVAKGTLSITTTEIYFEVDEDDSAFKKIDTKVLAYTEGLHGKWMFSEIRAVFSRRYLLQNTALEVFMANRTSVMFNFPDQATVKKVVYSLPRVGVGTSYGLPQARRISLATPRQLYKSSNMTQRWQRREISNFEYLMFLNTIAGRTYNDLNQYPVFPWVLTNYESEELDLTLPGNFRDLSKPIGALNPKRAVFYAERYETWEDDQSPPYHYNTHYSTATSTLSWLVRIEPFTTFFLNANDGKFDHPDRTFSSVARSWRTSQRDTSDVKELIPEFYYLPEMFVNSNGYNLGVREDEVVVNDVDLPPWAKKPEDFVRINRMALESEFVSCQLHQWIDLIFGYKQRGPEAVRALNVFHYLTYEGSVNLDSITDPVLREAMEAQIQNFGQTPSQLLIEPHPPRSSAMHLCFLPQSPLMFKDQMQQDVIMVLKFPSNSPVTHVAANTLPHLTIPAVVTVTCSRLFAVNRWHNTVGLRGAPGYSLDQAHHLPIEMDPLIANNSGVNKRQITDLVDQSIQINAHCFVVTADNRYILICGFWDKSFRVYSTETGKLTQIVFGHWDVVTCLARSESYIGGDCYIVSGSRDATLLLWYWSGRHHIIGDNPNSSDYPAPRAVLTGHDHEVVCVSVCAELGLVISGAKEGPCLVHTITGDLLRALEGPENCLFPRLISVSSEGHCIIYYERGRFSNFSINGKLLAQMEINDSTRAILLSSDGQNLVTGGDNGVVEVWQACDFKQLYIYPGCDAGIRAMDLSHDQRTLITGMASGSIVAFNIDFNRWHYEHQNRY
# UniProt Q8WVC6: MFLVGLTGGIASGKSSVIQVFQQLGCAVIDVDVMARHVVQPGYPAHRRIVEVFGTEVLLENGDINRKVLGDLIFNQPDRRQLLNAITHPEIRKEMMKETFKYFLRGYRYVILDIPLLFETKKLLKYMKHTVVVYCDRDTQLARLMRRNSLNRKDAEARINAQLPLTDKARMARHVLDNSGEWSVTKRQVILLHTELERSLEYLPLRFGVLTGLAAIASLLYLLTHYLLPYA
# UniProt Q8TAP6: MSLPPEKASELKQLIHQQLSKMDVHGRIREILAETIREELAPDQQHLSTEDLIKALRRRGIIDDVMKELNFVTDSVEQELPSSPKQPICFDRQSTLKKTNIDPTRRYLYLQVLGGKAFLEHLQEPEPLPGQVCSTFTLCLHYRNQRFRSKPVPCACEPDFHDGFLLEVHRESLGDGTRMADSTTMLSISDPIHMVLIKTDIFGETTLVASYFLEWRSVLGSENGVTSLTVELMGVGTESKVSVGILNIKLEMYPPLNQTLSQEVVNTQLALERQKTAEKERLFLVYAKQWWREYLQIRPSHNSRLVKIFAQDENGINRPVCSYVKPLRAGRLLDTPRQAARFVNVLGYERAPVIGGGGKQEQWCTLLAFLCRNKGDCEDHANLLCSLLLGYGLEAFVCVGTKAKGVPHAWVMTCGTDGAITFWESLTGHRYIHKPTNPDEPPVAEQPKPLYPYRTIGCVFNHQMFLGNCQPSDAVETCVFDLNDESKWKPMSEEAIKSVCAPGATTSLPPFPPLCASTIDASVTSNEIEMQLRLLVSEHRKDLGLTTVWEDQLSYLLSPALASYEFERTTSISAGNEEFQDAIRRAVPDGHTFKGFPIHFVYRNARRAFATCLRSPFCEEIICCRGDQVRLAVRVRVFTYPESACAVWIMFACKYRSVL
# UniProt Q8NDF8: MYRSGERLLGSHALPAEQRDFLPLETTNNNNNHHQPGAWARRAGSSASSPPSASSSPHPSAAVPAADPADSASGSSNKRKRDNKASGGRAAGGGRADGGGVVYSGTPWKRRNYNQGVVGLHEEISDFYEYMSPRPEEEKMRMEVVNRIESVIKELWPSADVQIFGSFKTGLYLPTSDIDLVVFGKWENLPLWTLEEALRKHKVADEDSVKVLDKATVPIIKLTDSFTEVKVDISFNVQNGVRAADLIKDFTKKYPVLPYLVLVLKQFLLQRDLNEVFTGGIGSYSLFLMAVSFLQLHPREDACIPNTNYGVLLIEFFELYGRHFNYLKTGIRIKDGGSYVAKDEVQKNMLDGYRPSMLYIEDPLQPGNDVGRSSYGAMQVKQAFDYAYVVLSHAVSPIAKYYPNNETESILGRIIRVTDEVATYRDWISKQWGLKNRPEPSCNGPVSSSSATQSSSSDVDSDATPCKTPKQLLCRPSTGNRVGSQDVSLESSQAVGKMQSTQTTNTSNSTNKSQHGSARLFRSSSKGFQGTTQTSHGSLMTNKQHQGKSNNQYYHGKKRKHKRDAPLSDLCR
# UniProt Q8TBF2: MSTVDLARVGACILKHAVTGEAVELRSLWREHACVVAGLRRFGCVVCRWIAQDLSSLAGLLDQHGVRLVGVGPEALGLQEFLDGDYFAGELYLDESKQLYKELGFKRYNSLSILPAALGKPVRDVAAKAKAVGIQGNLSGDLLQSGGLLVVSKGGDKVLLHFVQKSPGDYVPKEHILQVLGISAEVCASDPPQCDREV
# Some of the results follow. This is a noisy data set.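 Many melting curves are irregular; where none melted, Tm was taken as 64 °C.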
# Compound: CCc1cnccc1C(=O)Nc1cc2c(cc1F)NC(=O)CC2
# Assay: melting temperature shift (DMSO Tm minus MBE1-treated Tm) in cellular thermal proteome profiling; higher = less thermal stabilization by MBE1 (negative = stabilized by MBE1)
# Details: A375; MBE1 concentration: 100 nM
row,Target,melting temperature shift [°C]
1,HELB (UniProt Q8NG08),-0.349
2,UniProt Q8NFG4,-0.132
3,SETD7 (UniProt Q8WTS6),-0.974
4,DYNC2LI1 (UniProt Q8TCX1),1.28
5,NANP (UniProt Q8TBE9),0.769
6,GPX8 (UniProt Q8TED1),-0.919
7,SRFBP1 (UniProt Q8NEF9),-1.09
8,SMG8 (UniProt Q8ND04),-0.334
9,NECAP1 (UniProt Q8NC96),-0.63
10,UniProt Q8WV16,3.32
11,WDR36 (UniProt Q8NI36),0.904
12,UniProt Q8TAM2,-0.964
13,DMXL2 (UniProt Q8TDJ6),-1.49
14,SCCPDH (UniProt Q8NBX0),-0.771
15,UniProt Q8WV22,0.452
16,CASC5 (UniProt Q8NG31),-4.72
17,IPO4 (UniProt Q8TEX9),-0.414
18,LEO1 (UniProt Q8WVC0),-0.448
19,UniProt Q8TEB9,-0.0939

row,Target,melting temperature shift [°C]
1,CHMP7 (UniProt Q8WUX9),-0.56
2,UniProt Q8NFP9,-0.624
3,DCAKD (UniProt Q8WVC6),-0.216
4,COG1 (UniProt Q8WTW3),-1.18
5,CEP76 (UniProt Q8TAP6),-1.04
6,GPT2 (UniProt Q8TD30),-0.0423
7,UniProt Q8NHS3,-0.49
8,UniProt Q8TDG4,0.47
9,C12ORF29 (UniProt Q8N999),-2
10,UniProt Q8WTT2,-0.295
11,PAPD5 (UniProt Q8NDF8),0.333
12,CANT1 (UniProt Q8WVQ1),-0.698
13,SMAP2 (UniProt Q8WU79),-0.984
14,UBAC2 (UniProt Q8NBM4),1.17
15,UniProt Q8TBF2,-2.13
16,RDH11 (UniProt Q8TC12),-0.605
17,UniProt Q8WTR2,-0.611
18,UniProt Q8TAV0,-0.541
19,COLGALT1 (UniProt Q8NBJ5),-1.19

# Same assay, conditions: A375; MBE1 concentration: 1 uM
row,Target,melting temperature shift [°C]
1,HELB (UniProt Q8NG08),0.414
2,UniProt Q8NFG4,0.527
3,SETD7 (UniProt Q8WTS6),0.174
4,DYNC2LI1 (UniProt Q8TCX1),0.501
5,NANP (UniProt Q8TBE9),0.525
6,GPX8 (UniProt Q8TED1),-0.11
7,SRFBP1 (UniProt Q8NEF9),0.423
8,SMG8 (UniProt Q8ND04),-0.433
9,NECAP1 (UniProt Q8NC96),-0.483
10,UniProt Q8WV16,0.0611
11,WDR36 (UniProt Q8NI36),0
12,UniProt Q8TAM2,-2.24
13,DMXL2 (UniProt Q8TDJ6),-2.05
14,SCCPDH (UniProt Q8NBX0),0.651
15,UniProt Q8WV22,-0.574
16,CASC5 (UniProt Q8NG31),-0.547
17,IPO4 (UniProt Q8TEX9),-0.278
18,LEO1 (UniProt Q8WVC0),-0.186
19,UniProt Q8TEB9,-0.255

row,Target,melting temperature shift [°C]
1,CHMP7 (UniProt Q8WUX9),0.155
2,UniProt Q8NFP9,0.904
3,DCAKD (UniProt Q8WVC6),0.108
4,COG1 (UniProt Q8WTW3),-0.725
5,CEP76 (UniProt Q8TAP6),1.71
6,GPT2 (UniProt Q8TD30),-0.113
7,UniProt Q8NHS3,2.37
8,UniProt Q8TDG4,12.4
9,C12ORF29 (UniProt Q8N999),-0.58
10,UniProt Q8WTT2,-0.122
11,PAPD5 (UniProt Q8NDF8),-0.327
12,CANT1 (UniProt Q8WVQ1),0.651
13,SMAP2 (UniProt Q8WU79),-0.988
14,UBAC2 (UniProt Q8NBM4),0.366
15,UniProt Q8TBF2,0.843
16,RDH11 (UniProt Q8TC12),-0.458
17,UniProt Q8WTR2,-1.09
18,UniProt Q8TAV0,-0.282
19,COLGALT1 (UniProt Q8NBJ5),-0.0335
